Experimental data published in PubChem BioAssay AID588497 (NMMLSC, 2011).
Hit rate of the full screen: of about 360,000 compounds, about 780 (0.22%) were called active. The shares of active, inactive and inconclusive entries below differ from those in the screen. Rule as the data show it: active = inhibition above about 35% (passing the limit was not always enough); inconclusive = no clear call, values can overlap the other calls.

These compounds were tested on Botulinum neurotoxin type F light chain protease (Clostridium botulinum) (assay: BoNT/F light chain protease inhibitors, primary screen, biochemical, flow cytometry, MLPCN library (AID 588497; also: plate controls were buffer without enzyme for full effect and enzyme alone for no effect)). Details: Multiplex microsphere protease cleavage assay, at 10 µM, active compounds read high.

| SMILES | inhibition |
| --- | --- |
| CC(C)CCn1nnnc1C(c1ccc(F)cc1)N1CCN(C(=O)c2ccco2)CC1 (centres undefined) | inconclusive: -39.5% |
| Cc1nc2ccccc2c(=O)n1/N=C/c1ccc(C(C)C)cc1 | inactive: -1.7% |
| CCc1ccc(C(=O)OCC(=O)N(CCOC)c2c(N)n(Cc3ccccc3)c(=O)[nH]c2=O)cc1 | active: 47.2% |
| O=C(N/N=C/c1ccc2c(c1)OCCO2)c1ccncc1 | inconclusive: -5.4% |
| Cc1nn(C)c(C(=O)NC(=S)Nc2ccc([N+](=O)[O-])cc2)c1Cl | inconclusive: -16.1% |
| Cn1c(SCc2ccccc2)nnc1-c1ccncc1 | inactive: -1% |
| O=C(O)Cn1c2c(c3ccccc31)CSc1ccc(Cl)cc1-2 | inactive: 11.8% |
| COc1ccccc1CNC(=O)C(=O)NCC1OCCN1C(=O)c1ccc(Cl)cc1 (centres undefined) | inactive: 0.1% |
| CC(C)c1ccc(C(O)P(=O)(OC2CCCCC2)OC2CCCCC2)cc1 (centres undefined) | inconclusive: -19.2% |
| O=C(COC(=O)COc1cccc(Br)c1)Nc1ccc(F)cc1F | inactive: -3.6% |
| CCN(CC)Cc1c[nH]c2ccccc12 | inactive: -13.3% |
| Cc1ccc(C)c(OCCCCN2CCCCC2)c1 | inconclusive: -7.2% |
| CC1(c2ccccc2)NC(=O)N(CC#N)C1=O (centres undefined) | inactive: -3.1% |
| O=C(Cn1nc(C(F)F)cc1C1CC1)N1CCCC1 | inactive: 4.6% |
| CCC(NC(=O)COc1cc2c(c3oc(=O)c(C)c(C)c13)CCC(C)(C)O2)C(=O)O (centres undefined) | inactive: 7.7% |
| COc1ccc(-c2coc3cc(OC(C)=O)ccc3c2=S)cc1 | inactive: -1.5% |
| Cc1ccc(C(C)C)c(OCC(O)CN2CC(C)OC(C)C2)c1 (centres undefined) | inconclusive: 4.8% |
| Cc1ccccc1-c1ccc(C=Nc2c(C)n(C)n(-c3ccccc3)c2=O)o1 | inactive: -62.6% |
| CC(=O)Oc1ccc(/C(C)=N\N2CCN(Cc3ccc(Cl)cc3)CC2)cc1 | inconclusive: -60.6% |
| COc1cc(C(=O)N2C[C@@H]3CCC[C@H]2C3)ccc1OC1CCN(C(C)=O)CC1 | inconclusive: -12.2% |

| SMILES | inhibition |
| --- | --- |
| O=C(O)c1ccc(S(=O)(=O)N(CCc2ccccc2)Cc2ccc(Cl)cc2)cc1 | inconclusive: -2.5% |
| CC1(C)Cc2nc3oc4c(SCC(N)=O)ncnc4c3cc2CO1 | inconclusive: -35.1% |
| Nc1nc2ccccc2n1S(=O)(=O)c1ccccc1 | inactive: 11.1% |
| Cc1cc(-c2onc(C)c2C(=O)Oc2ccc(Cl)cc2)no1 | inconclusive: 56.1% |
| O=C(/C=C(\O)c1ccc(Cl)cc1)C(=O)NNC(=O)C(O)(c1ccccc1)c1ccccc1 | inconclusive: 1.2% |
| COc1ccc2cc(C#CC3=CC(=O)C[C@H](c4ccc(F)cc4)C3)ccc2c1 | inactive: 1% |
| Fc1ccc(-c2cc(C(F)(F)C(F)F)[nH]n2)cc1 | inconclusive: 7.1% |
| C[C@@H]1CN([C@H](C)CO)S(=O)(=O)c2ccc(Br)cc2O[C@H]1CN(C)C(=O)Cc1ccccn1 | inactive: 2.3% |
| O=C(c1ccccc1Cl)c1c(O)c2ccccc2oc1=O | inconclusive: 6.3% |
| COc1ccc(Oc2ccc(-c3ccn[nH]3)cc2)cc1 | inconclusive: -22.7% |
| CC1Oc2ccccc2N(CC(=O)N2CCCCCC2)C1=O (centres undefined) | inactive: -3.1% |
| Cc1cc(NC(=O)/C(C#N)=C/c2ccc(-c3cccc(C(F)(F)F)c3)o2)n(-c2ccccc2)n1 | inactive: -2.6% |
| O=C1C=C(c2ccccc2)OC(c2ccccc2)O1 (centres undefined) | inactive: -1.9% |
| CCN(CC)C(=O)C(Sc1ccccc1)c1ccccc1 (centres undefined) | active: 57.2% |
| CCOP(=O)(c1ccccc1)c1nc(-c2ccccc2C)oc1NCc1ccccc1 (centres undefined) | inconclusive: -114% |
| Cc1ccc(NC(=O)Nc2ccccc2C(N)=O)cc1 | inconclusive: 17.5% |
| FC(F)(F)c1cc(-c2ccccn2)nc2cc(-c3ccccc3)nn12 | inconclusive: 15.8% |
| Cc1ccc(-c2nnn(Cc3nc4ccccc4s3)n2)cc1 | inactive: 4.1% |
| Cc1nn(-c2ccccc2)cc1/C=N/NC(=O)c1cccs1 | inconclusive: -37.1% |
| N#CCCN(Cc1ccccc1)C(=S)NC(=O)c1ccccc1 | inactive: 2.4% |

| SMILES | inhibition |
| --- | --- |
| CC(=O)c1ccc(Sc2ccccn2)c([N+](=O)[O-])c1 | inconclusive: 30% |
| O=C(Nc1ccc2ccccc2n1)c1ccc(Cl)cc1 | inconclusive: -9.5% |
| CS(=O)(=O)N(CC(=O)N1CCC(C(N)=O)CC1)Cc1ccc(Cl)c(Cl)c1 | inconclusive: 8.7% |
| Cc1cc(Nc2ccc(N(C)C)cc2)n2ncnc2n1 | inactive: -26.6% |
| COc1ccc(C(=O)n2nc(C#N)c(C#N)c2N)cc1 | inconclusive: -41.2% |
| COc1ccc(N(CC(=O)N2CCN(c3ccccc3F)CC2)S(=O)(=O)c2ccc(C)cc2)cc1 | inactive: 0.9% |
| Cc1ccc(S(=O)(=O)N2CCN(S(=O)(=O)N3CCC(C)CC3)CC2)cc1C | inactive: 3% |
| O=C1C=C(c2ccccc2)CO1 | inactive: -6.1% |
| O=C(COC(=O)CNC(=O)c1ccccc1)NCCNC(=O)COC(=O)CNC(=O)c1ccccc1 | inactive: -5.1% |
| CC(C)(C)c1ccc(C(=O)c2cn[nH]c2-c2ccccc2O)cc1 | inconclusive: -47.3% |
| COc1cccc(C(CC(=O)NCc2ccco2)NS(=O)(=O)c2ccc(C)cc2)c1OC (centres undefined) | inconclusive: -37% |
| CC1C(C)N1CC(O)Cn1ccnc1[N+](=O)[O-] (centres undefined) | inconclusive: 2.2% |
| Cc1ccc2cc3cc(C(=O)NCCN4CCOCC4)oc3nc2c1 | active: 34.6% |
| COc1ccccc1Cn1[nH]nnc1=S | inconclusive: -26.1% |
| O=C(CCN1C(=O)/C(=C/c2ccco2)SC1=S)Nc1ccc(C(=O)O)c(O)c1 | inactive: -37.7% |
| CCOc1ccc(C(C)=O)cc1Cn1c(=O)oc2ccccc21 | inactive: -15.4% |
| OC(C[n+]1ccccc1)c1ccccc1 (centres undefined) | inconclusive: -0.5% |
| Fc1c(CSC(=S)N2CCOCC2)cccc1CSC(=S)N1CCOCC1 | inconclusive: -32.2% |
| CCN(CC(=O)Nc1ccccc1C(F)(F)F)C(=O)/C=C/c1ccc(Cl)c([N+](=O)[O-])c1 | inactive: 0.4% |

Copied from the entries so far for reference:

| SMILES | inhibition |
| --- | --- |
| CC(C)(C)c1ccc(C(=O)c2cn[nH]c2-c2ccccc2O)cc1 | inconclusive: -47.3% |
| COc1cccc(C(CC(=O)NCc2ccco2)NS(=O)(=O)c2ccc(C)cc2)c1OC (centres undefined) | inconclusive: -37% |
| CC1C(C)N1CC(O)Cn1ccnc1[N+](=O)[O-] (centres undefined) | inconclusive: 2.2% |
